# Source: patent US20120309704A1, “COMPOSITIONS FOR TREATMENT OF CHEMORESISTANT AND/OR POTENTIALLY CHEMORESISTANT LEUKAEMIAS” (priority 2009, published 2012)
# Key:
# [1] = system: AML cell lines and primary samples; settings: administration of hERG1 blockers; cited from earlier work
# 697 cells = assay: Annexin V/propidium iodide apoptosis of 697 cells cultured in the absence or presence of marrow stromal cells (MSC); type: cell-based, human
compound,measurement,setting,value
"Cc1cccc(CCN2CCC(C(=O)c3ccc(NS(C)(=O)=O)cc3)CC2)n1.Cl.Cl [E4031, N-[4-[[1-[2-(6-Methyl-2-pyridyl)ethyl]-4-piperidinyl]carbonyl]phenyl]metanesolfonammide dihydrochloride]",cellular growth,[1],impairs cellular growth
same,protective effect exerted by the stroma against doxorubicin in the presence of the hERG1 inhibitor,"697 cells; 697 cells + MSC + doxorubicin 0.1 μg/ml, E4031 20 μM, erythromycin 100 μM, sertindole 1 μM, 48 hours",reverted
same,pro-apoptotic effect of the hERG1 inhibitor alone,"697 cells; 697 cells, E4031 alone",has a pro-apoptotic effect
same,pro-apoptotic effect of the hERG1 inhibitor in combination with doxorubicin,"697 cells; 697 cells, combination with doxorubicin",strongly strengthened
